Data published in the supplement of paper PMC10849652.
The list shows a part of the results.

The chains behind the UniProt entries cited, without tags or fusion partners. Where a name states a change or a piece, a line headed by the entry shows the natural chain unless it says otherwise.
UniProt O00203: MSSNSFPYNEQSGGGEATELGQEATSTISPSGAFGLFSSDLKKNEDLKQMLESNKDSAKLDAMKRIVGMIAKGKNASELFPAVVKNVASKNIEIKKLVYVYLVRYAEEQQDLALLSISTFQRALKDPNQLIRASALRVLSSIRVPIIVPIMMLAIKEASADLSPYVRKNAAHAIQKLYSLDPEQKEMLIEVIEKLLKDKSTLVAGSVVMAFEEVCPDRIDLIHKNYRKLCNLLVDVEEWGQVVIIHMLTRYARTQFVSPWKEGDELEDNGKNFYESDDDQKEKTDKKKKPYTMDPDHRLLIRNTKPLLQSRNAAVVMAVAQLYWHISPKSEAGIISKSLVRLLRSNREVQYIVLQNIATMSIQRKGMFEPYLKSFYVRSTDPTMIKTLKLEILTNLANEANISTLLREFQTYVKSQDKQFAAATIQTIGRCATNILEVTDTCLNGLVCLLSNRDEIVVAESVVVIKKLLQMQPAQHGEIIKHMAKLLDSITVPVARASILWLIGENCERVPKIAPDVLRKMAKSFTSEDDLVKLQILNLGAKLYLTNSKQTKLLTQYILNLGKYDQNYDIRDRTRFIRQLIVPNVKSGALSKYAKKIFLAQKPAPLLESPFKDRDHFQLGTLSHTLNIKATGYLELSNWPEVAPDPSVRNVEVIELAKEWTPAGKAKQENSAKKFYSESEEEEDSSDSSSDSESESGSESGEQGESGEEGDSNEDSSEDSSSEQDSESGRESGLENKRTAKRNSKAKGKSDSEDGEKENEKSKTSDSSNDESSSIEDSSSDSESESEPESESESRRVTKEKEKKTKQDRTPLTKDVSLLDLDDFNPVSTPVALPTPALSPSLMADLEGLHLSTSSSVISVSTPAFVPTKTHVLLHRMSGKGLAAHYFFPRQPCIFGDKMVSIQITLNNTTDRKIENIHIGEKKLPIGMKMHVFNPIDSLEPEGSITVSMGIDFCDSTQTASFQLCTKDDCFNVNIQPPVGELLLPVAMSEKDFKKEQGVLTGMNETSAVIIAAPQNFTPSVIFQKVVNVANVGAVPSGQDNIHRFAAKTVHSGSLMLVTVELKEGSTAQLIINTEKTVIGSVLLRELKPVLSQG
UniProt O94973, whole entry, looked up: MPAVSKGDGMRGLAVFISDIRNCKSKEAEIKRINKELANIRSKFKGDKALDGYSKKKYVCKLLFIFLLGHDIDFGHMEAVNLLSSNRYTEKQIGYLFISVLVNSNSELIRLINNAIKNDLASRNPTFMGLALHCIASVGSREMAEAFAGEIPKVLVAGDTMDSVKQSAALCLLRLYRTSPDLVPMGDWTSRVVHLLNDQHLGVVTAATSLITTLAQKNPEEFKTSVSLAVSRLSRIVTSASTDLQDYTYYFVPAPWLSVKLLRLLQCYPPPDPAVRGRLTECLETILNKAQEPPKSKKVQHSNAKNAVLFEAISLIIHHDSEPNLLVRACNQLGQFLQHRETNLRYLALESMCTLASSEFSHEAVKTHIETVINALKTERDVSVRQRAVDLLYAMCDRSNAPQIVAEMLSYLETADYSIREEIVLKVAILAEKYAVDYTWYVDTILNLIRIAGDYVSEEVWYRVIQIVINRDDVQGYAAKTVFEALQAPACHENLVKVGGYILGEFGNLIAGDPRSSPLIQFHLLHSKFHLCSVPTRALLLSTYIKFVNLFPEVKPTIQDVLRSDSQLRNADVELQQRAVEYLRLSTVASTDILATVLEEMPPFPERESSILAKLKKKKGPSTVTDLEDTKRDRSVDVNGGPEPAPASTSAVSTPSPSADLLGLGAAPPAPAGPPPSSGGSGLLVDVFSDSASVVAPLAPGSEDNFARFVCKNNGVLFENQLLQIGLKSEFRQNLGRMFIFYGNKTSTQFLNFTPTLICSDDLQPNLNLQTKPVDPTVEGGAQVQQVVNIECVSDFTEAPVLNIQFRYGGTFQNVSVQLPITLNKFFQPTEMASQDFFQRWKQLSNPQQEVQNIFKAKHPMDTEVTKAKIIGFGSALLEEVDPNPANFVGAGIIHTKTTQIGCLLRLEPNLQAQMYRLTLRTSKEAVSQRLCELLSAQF
UniProt Q9UM13, whole entry, looked up: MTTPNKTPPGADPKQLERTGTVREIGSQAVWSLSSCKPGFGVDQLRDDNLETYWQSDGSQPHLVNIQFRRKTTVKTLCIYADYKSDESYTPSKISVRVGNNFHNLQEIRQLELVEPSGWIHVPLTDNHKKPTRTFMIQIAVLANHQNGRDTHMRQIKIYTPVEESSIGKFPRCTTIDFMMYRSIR
UniProt Q86W34: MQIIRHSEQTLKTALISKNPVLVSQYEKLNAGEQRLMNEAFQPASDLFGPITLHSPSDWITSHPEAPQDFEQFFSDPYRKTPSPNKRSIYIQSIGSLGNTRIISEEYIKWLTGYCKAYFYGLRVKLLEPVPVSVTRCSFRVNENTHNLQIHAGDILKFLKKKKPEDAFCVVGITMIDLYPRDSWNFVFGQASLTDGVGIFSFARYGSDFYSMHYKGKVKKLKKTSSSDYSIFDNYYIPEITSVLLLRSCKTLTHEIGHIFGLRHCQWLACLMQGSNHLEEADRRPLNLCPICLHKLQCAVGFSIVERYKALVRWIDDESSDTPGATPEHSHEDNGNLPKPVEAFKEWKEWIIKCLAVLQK
UniProt Q92572: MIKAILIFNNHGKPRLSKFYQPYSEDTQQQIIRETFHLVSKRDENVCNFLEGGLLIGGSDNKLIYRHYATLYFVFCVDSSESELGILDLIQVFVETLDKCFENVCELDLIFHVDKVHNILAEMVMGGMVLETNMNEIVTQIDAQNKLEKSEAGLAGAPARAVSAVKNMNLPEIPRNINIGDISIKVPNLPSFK
UniProt P50995, whole entry, looked up: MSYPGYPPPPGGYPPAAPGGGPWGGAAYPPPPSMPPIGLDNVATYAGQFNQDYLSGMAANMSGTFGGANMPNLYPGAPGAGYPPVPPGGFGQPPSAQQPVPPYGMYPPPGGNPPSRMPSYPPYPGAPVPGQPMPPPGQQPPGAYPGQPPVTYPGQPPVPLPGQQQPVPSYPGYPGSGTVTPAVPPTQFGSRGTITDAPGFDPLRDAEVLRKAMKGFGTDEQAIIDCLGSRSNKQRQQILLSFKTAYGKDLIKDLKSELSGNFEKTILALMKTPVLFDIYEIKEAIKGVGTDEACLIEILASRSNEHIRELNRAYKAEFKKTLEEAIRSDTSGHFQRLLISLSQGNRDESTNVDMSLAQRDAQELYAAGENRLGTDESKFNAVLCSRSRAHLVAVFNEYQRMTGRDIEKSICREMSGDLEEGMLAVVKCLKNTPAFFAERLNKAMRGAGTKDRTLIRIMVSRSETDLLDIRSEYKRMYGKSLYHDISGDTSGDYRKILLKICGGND
UniProt P30837: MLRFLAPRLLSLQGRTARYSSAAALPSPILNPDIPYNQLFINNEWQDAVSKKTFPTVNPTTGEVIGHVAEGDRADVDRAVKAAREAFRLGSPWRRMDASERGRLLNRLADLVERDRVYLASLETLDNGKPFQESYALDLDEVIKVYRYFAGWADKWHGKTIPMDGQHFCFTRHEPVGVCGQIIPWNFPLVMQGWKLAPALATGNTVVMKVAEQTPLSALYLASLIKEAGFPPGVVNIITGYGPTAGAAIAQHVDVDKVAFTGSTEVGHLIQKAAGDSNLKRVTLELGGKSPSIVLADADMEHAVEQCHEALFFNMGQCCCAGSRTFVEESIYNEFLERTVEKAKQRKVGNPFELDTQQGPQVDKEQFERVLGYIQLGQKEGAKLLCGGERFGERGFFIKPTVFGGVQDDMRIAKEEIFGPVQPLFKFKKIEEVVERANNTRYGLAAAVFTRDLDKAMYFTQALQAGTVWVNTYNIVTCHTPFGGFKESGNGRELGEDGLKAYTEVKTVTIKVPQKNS
UniProt P61966: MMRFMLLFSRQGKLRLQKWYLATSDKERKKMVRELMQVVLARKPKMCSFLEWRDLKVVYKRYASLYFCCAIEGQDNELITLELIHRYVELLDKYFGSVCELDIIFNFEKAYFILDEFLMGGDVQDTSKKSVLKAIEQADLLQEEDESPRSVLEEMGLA
UniProt Q92688: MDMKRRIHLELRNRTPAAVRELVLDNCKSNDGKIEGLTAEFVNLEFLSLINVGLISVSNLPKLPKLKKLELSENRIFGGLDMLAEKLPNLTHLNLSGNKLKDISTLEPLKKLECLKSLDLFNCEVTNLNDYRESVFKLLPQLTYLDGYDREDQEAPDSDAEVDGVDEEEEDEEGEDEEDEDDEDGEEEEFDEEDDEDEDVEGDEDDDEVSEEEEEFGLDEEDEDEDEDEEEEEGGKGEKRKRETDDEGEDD
UniProt P00352: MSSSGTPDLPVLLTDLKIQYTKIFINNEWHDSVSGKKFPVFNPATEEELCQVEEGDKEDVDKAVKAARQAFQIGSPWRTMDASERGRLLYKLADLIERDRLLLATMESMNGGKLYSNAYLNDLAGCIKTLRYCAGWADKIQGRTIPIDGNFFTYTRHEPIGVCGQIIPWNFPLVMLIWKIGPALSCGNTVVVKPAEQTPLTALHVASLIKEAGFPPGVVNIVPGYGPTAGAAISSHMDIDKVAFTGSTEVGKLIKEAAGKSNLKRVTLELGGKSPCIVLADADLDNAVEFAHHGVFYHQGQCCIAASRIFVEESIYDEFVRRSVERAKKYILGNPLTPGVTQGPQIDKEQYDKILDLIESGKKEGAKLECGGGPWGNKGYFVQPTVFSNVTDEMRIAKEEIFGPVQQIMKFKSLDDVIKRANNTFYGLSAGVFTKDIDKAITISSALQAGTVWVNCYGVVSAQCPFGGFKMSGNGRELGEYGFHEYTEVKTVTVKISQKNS
UniProt O95782: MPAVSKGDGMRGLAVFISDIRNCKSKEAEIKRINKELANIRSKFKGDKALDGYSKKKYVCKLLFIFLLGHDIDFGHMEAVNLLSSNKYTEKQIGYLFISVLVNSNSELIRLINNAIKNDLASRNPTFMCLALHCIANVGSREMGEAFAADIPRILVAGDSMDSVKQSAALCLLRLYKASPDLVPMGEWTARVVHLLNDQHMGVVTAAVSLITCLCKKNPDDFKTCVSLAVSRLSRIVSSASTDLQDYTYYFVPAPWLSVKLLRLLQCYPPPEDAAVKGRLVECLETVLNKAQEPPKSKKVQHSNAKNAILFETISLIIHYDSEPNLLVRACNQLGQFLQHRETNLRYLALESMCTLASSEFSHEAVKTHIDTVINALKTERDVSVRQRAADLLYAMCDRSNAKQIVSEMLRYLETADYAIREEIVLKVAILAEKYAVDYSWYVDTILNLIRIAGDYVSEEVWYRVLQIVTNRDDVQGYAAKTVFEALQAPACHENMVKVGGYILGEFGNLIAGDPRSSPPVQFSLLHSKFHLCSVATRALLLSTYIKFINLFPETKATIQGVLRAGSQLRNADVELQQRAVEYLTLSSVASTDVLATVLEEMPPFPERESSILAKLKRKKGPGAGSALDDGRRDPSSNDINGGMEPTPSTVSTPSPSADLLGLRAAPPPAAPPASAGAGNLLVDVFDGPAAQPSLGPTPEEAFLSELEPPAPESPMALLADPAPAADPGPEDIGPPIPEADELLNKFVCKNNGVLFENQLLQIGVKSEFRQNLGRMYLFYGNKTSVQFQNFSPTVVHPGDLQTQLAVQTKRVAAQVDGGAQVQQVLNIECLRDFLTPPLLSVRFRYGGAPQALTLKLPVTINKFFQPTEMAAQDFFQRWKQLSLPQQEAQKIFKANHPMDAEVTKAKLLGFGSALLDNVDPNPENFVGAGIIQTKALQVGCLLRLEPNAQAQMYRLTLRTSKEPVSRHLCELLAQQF
UniProt Q9BT22: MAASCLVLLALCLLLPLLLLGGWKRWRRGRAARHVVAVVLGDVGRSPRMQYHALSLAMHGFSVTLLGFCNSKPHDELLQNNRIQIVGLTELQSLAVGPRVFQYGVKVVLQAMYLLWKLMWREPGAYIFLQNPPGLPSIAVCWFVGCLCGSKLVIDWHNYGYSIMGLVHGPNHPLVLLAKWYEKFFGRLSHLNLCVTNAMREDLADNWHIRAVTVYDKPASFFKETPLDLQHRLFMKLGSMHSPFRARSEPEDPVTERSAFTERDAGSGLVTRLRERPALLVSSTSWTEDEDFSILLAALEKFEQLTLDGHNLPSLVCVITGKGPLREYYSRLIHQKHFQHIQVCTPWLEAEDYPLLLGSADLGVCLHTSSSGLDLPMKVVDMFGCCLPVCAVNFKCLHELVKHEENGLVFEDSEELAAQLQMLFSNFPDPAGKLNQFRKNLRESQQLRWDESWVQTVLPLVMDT

Legend:
Assay in all cases: log2 fold change, soluble protein after heating vs DMSO (PISA); higher = thermal stabilisation; K562 lysate, 10 uM; active = over 0.2 and 3.5 SD of the protein, either way, in both replicates (recomputed)
[1] = compound: Cc1cn(-c2cc(NC(=O)c3ccc(C)c(Nc4nccc(-c5cccnc5)n4)c3)cc(C(F)(F)F)c2)cn1 [nilotinib]
Summary of the method: (§1)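 Values give the log-two fold change in thermal stability against solvent controls, from duplicates. Crude K562 extract at 1 mg/mL protein, made by dounce homogenisation in PBS pH 7.4 with 1 mM MgCl2, was treated with 10 μM compound for 30 min. After 3 min heating across 48°C-58°C, aliquots were pooled, adjusted to 0.5% NP-40 at 4°C and centrifuged at 21,000xg for 90 min. The supernatant was measured by TMTpro 16plex LC-MS/MS with channel sums equalised.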

[2] = compound: Cc1nc(Nc2n[nH]c3c2CN(C(=O)N[C@H](CN(C)C)c2ccccc2)C3(C)C)c2sccc2n1
Summary of the method: as §1

[3] = compound: Cc1nc(Nc2ncc(C(=O)Nc3c(C)cccc3Cl)s2)cc(N2CCN(CCO)CC2)n1 [dasatinib]
Summary of the method: as §1

[4] = compound: Cc1ncc(-c2ccnc(Nc3ccc(S(C)(=O)=O)cc3)n2)n1C(C)C
Summary of the method: as §1

[5] = compound: Cn1cc(-c2ccc3c(c2)CCN3C(=O)Cc2cccc(C(F)(F)F)c2)c2c(N)ncnc21
Summary of the method: as §1

[6] = compound: Cn1cc(CNCC2CCN(c3ncc(C(=O)NO)cn3)CC2)c2ccccc21 [quisinostat]
Summary of the method: as §1

[7] = compound: Cn1cncc1[C@@](N)(c1ccc(Cl)cc1)c1ccc2c(c1)c(-c1cccc(Cl)c1)cc(=O)n2C [tipifarnib]
Summary of the method: as §1

[8] = compound: NC(=O)Nc1cc(-c2cccc(F)c2)sc1C(=O)N[C@H]1CCCNC1
Summary of the method: as §1

[9] = compound: NC(=O)c1cnc(N[C@@H]2CCCC[C@@H]2N)nc1Nc1cccc(-n2nccn2)c1
Summary of the method: as §1

[10] = compound: NC1(c2ccc(-c3nc4ccn5c(=O)[nH]nc5c4cc3-c3ccccc3)cc2)CCC1
Summary of the method: as §1

[11] = compound: NCC(=O)Nc1ccc(-n2nc(C(F)(F)F)cc2-c2ccc3c(ccc4ccccc43)c2)cc1
Summary of the method: as §1

[12] = compound: O=C(CCCCCCC(=O)Nc1ccccc1)NO [vorinostat]
Summary of the method: as §1

[13] = compound: O=C(O)c1ccc2c(c1)nc(Nc1cccc(Cl)c1)c1ccncc12 [silmitasertib]
Summary of the method: as §1

[14] = compound: O=C1NC(=O)C(c2cnc3ccccn23)=C1c1cn2c3c(cc(F)cc13)CN(C(=O)N1CCCCC1)CC2
Summary of the method: as §1

[15] = compound: c1cn2cc(-c3ccc4cn[nH]c4c3)nc(Nc3ccc(N4CCOCC4)cc3)c2n1 [entospletinib]
Summary of the method: as §1

Measured: log2 fold change

AP3B1 (UniProt O00203)
inactive: [1] -0.003 | [2] 0.03 | [3] -0.038 | [4] -0.002 | [5] 0.005 | [6] -0.009 | [7] -0.017 | [8] -0.001 | [9] -0.003 | [10] 0.012 | [11] 0.015 | [12] -0.098 | [13] -0.003 | [14] -0.014 | [15] 0.015

AP2A2 isoform 2 (UniProt O94973)
inactive: [1] 0 | [2] 0.046 | [3] 0.008 | [4] 0.059 | [5] -0.063 | [6] -0.008 | [7] -0.015 | [8] -0.01 | [9] -0.027 | [10] -0.038 | [11] -0.012 | [12] 0.015 | [13] 0.035 | [14] -0.02 | [15] 0.019

ANAPC10 (UniProt Q9UM13)
inactive: [1] -0.005 | [2] -0.008 | [3] -0.04 | [4] -0.019 | [5] 0.05 | [6] 0.016 | [7] -0.014 | [8] 0.061 | [9] -0.003 | [10] 0.066 | [11] -0.009 | [12] -0.232 | [13] -0.086 | [14] -0.007 | [15] 0.011

AMZ2 (UniProt Q86W34)
inactive: [1] -0.063 | [2] 0.058 | [3] -0.046 | [4] -0.014 | [5] -0.051 | [6] -0.032 | [7] 0.071 | [8] 0.013 | [9] 0.023 | [10] 0.008 | [11] -0.009 | [12] 0.1 | [13] -0.032 | [14] -0.031 | [15] -0.019

AMPD3 isoform 4 (UniProt Q01432)
active: [12] 0.256
inactive: [1] -0.002 | [2] 0.027 | [3] 0.014 | [4] -0.021 | [5] -0.013 | [6] 0.038 | [7] 0.032 | [8] -0.012 | [9] -0.017 | [10] 0.012 | [11] -0.038 | [13] -0.005 | [14] -0.021 | [15] 0.018

ALG10B (UniProt Q5I7T1)
inactive: [1] -0.021 | [2] -0.093 | [3] -0.026 | [4] -0.001 | [5] 0.071 | [6] 0.001 | [7] -0.029 | [8] -0.028 | [9] 0.002 | [10] -0.012 | [12] 0.014 | [13] -0.076 | [14] -0.04

AP3S1 (UniProt Q92572)
inactive: [1] -0.006 | [2] 0 | [3] -0.028 | [4] 0.006 | [5] -0.013 | [6] -0.014 | [7] 0.037 | [8] -0.009 | [9] 0.028 | [10] -0.018 | [11] 0 | [12] 0.002 | [13] -0.022 | [14] -0.045 | [15] 0.018

ANXA11 (UniProt P50995)
inactive: [1] 0.014 | [2] -0.017 | [3] -0.033 | [4] -0.029 | [5] 0.016 | [6] 0.005 | [7] -0.011 | [8] -0.002 | [9] 0.009 | [10] 0.028 | [11] -0.003 | [12] -0.117 | [13] 0.044 | [14] -0.018 | [15] 0.031

ALDH1B1 (UniProt P30837)
inactive: [1] 0.096 | [2] -0.015 | [3] -0.022 | [4] 0.013 | [5] 0.034 | [6] 0.118 | [7] 0.05 | [8] 0.046 | [9] 0.011 | [10] 0.003 | [11] 0.027 | [13] -0.051 | [14] -0.022 | [15] 0.033
active: [12] 1.15

ALDH9A1 isoform 3 (UniProt P49189)
inactive: [1] 0.023 | [2] -0.008 | [3] -0.02 | [4] 0.012 | [5] -0.036 | [6] 0.095 | [7] 0.02 | [8] 0.015 | [9] -0.004 | [10] 0.003 | [11] 0.002 | [12] 0.15 | [13] -0.028 | [14] 0.03 | [15] 0.015

AP1S1 (UniProt P61966)
inactive: [1] 0.025 | [2] 0.024 | [3] 0.032 | [4] -0.015 | [5] 0.031 | [6] 0.153 | [7] 0.025 | [8] -0.049 | [9] 0.005 | [10] 0.026 | [11] -0.063 | [12] 0.067 | [13] -0.002 | [14] -0.024 | [15] -0.015

AP1B1 (UniProt Q10567)
inactive: [1] 0.027 | [2] -0.009 | [3] 0.02 | [4] -0.009 | [5] -0.008 | [6] -0.034 | [7] 0.015 | [8] 0.006 | [9] -0.012 | [10] 0.015 | [11] -0.031 | [12] 0.112 | [13] -0.006 | [14] 0.001 | [15] 0.015

ANP32B (UniProt Q92688)
inactive: [1] -0.004 | [2] 0.025 | [3] 0.015 | [4] -0.018 | [5] -0.04 | [6] 0.02 | [7] -0.006 | [8] -0.017 | [9] -0.022 | [10] 0.001 | [11] 0.025 | [12] 0.072 | [13] 0 | [14] -0.015 | [15] 0.013

ALDH1A1 (UniProt P00352)
active: [3] 0.306
inactive: [1] 0.036 | [2] -0.019 | [4] -0.012 | [5] -0.04 | [6] 0.015 | [7] 0.019 | [8] 0.014 | [9] -0.011 | [10] 0.034 | [11] -0.038 | [12] 0.116 | [13] -0.011 | [14] -0.018 | [15] 0.02

ANTXR2 isoform 4 (UniProt P58335)
inactive: [1] 0.017 | [2] 0.031 | [3] 0.034 | [4] -0.048 | [5] -0.009 | [6] -0.089 | [7] -0.052 | [8] -0.016 | [9] 0.021 | [10] -0.043 | [11] 0.011 | [12] 0.123 | [13] -0.005 | [14] -0.011 | [15] 0.01

Quoted at random: 2 records from the list.
ALG10B (UniProt Q5I7T1)
inactive: [1] -0.021 | [2] -0.093 | [3] -0.026 | [4] -0.001 | [5] 0.071 | [6] 0.001 | [7] -0.029 | [8] -0.028 | [9] 0.002 | [10] -0.012 | [12] 0.014 | [13] -0.076 | [14] -0.04

AMZ2 (UniProt Q86W34)
inactive: [1] -0.063 | [2] 0.058 | [3] -0.046 | [4] -0.014 | [5] -0.051 | [6] -0.032 | [7] 0.071 | [8] 0.013 | [9] 0.023 | [10] 0.008 | [11] -0.009 | [12] 0.1 | [13] -0.032 | [14] -0.031 | [15] -0.019

Later entries.

AKT1 (UniProt P31749)
inactive: [1] -0.05 | [2] 0.012 | [3] -0.014 | [4] -0.01 | [5] 0.001 | [6] -0.1 | [7] 0.025 | [8] 0 | [9] -0.007 | [11] -0.051 | [12] -0.192 | [13] -0.012 | [14] -0.024 | [15] -0.005
active: [10] 0.669

AP2A1 (UniProt O95782)
inactive: [1] -0.008 | [2] 0.011 | [3] -0.015 | [4] 0.027 | [5] -0.023 | [6] -0.027 | [7] 0.001 | [8] -0.027 | [9] 0 | [10] -0.006 | [11] 0.004 | [12] 0.013 | [13] 0.036 | [14] 0.016 | [15] 0.026

ANAPC16 (UniProt Q96DE5)
inactive: [1] -0.105 | [2] -0.319 | [3] 0.021 | [4] -0.159 | [5] 0.001 | [6] -0.045 | [7] 0.068 | [8] 0.003 | [9] -0.009 | [10] 0.059 | [11] -0.019 | [12] -0.11 | [13] 0.005 | [14] 0.021 | [15] 0.146

ANXA2 (UniProt H0YL33)
inactive: [1] -0.153 | [2] 0.008 | [3] -0.069 | [4] 0.074 | [5] 0.022 | [6] 0.134 | [7] 0.199 | [8] -0.196 | [9] -0.078 | [10] 0.089 | [12] -0.153 | [13] 0.16 | [14] 0.042

ANPEP (UniProt P15144)
inactive: [1] 0 | [2] -0.068 | [3] -0.019 | [4] 0.124 | [5] -0.029 | [6] 0.008 | [7] 0.116 | [8] 0.04 | [9] -0.009 | [10] -0.011 | [11] -0.111 | [12] 0.132 | [13] -0.008 | [14] -0.014 | [15] -0.057

ALG1 (UniProt Q9BT22)
inactive: [1] -0.094 | [2] 0.048 | [3] -0.017 | [4] 0.173 | [5] 0.005 | [6] 0.055 | [7] -0.022 | [8] 0.019 | [9] -0.005 | [10] -0.002 | [11] -0.05 | [12] -0.13 | [13] 0.038 | [14] -0.068 | [15] 0.032
